Reference: PubChem BioAssay AID504444 (National Center for Advancing Translational Sciences (NCATS), 2011)
Among all 360,000 compounds or so, about 7,500 (2.1%) were called active. The inconclusive results got no clear call from the source; some entries with a clear call stand among them for comparison. Calls come from the whole dose curve; as a rule, active = well fitted inhibition curve with a large enough effect; inconclusive = small, poorly fitted or top-dose-only effect, or effect the other way; inactive = flat fitted curve, though single readings scatter. A potency beside an inconclusive call is a rough fit, not a confirmed value.

Test: Nrf2 qHTS screen for inhibitors; note: nearly all actives have a fitted effect of over 60% in size
Settings: A549 ARE-Fluc reporter, luciferase luminescence, 18-24 h; series mostly up to 46 µM
In short: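 Nrf2 activity is the BugLite luminescence, read 15 min after reagent at room temperature, following CellTiter-Fluor cytotoxicity readout (30 min, 37C). Compound titrations were applied for 18-24 h to 5000 A549 ARE_Fluc cells/well in 5% FBS OPTI-MEM.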
Potency is the fitted concentration of half-maximal effect.

Row | Compound | Potency
1 | CN1CCN(C(=O)CCCN2C(=O)/C(=C/c3ccccc3)SC2=S)CC1 | inconclusive: 29.1 µM [activator, single point]
2 | O=C(NCCCN1CCOCC1)c1cc(-c2cccs2)on1 | inconclusive: 29.1 µM [activator, single point]
3 | CC1CCN(C2CCN(C(=O)c3ccccc3F)CC2)CC1 | inactive
4 | CCOc1ccccc1CNC(=O)c1ccc(NC(=O)N2CCSc3ncccc32)cc1 | active: 18.4 µM
5 | O=C(Nc1ccc(Cl)c(C(F)(F)F)c1)C1CCCN(S(=O)(=O)c2cnc[nH]2)C1 (stereo not given) | inconclusive: 25.9 µM [falling, single point]
6 | O=C(CSc1ccc(-c2ccccc2)nn1)c1ccccc1 | inconclusive: 20.6 µM [activator, partial curve]
7 | CN(C)c1ccc(N=Cc2ccco2)cc1 | inconclusive: 6.51 µM [activator, full curve]
8 | CCOC(=O)c1cc(C(C)=O)c(=O)[nH]c1C | inactive
9 | O=C1C(=C2CCc3ccccc32)Cc2ccccc21 | inconclusive: 29.1 µM [activator, single point]
10 | CS/C(N)=N/C(=S)Nc1cccc(Cl)c1 | inconclusive: 29.1 µM [activator, single point]
11 | Cc1ccn2c(C(=O)c3ccc(Cl)cc3)cnc2c1 | inconclusive: 16.4 µM [activator, partial curve]
12 | C=CCn1c(NCCc2ccccc2)nc2c1c(=O)n(C)c(=O)n2C | active: 9.2 µM
13 | O=C(O)[C@@H]1CC(O)CN1C(=O)CCc1c[nH]c2ccccc12 (stereo not given in full) | inconclusive: 29.1 µM [activator, single point]
14 | c1ccc2c(c1)CCN(c1nc3ccccc3n3cnnc13)C2 | inactive
15 | CCc1nnc(NC(=O)c2ccc3nc(CC)c(CC)nc3c2)s1 | inconclusive: 6.51 µM [activator, partial curve]
16 | COC(=O)c1ccc(OCC(O)CNCC(c2ccc(OC)cc2)N(C)C)c(OC)c1 (stereo not given) | inactive
17 | CCc1ccc(/C=N/Nc2ncnc3nc[nH]c23)cc1 | inconclusive: 18.4 µM [activator, partial curve]
18 | Cc1ccc(/C(N)=N/OC(=O)c2ccc(F)cc2)cc1 | inconclusive: 2.91 µM [activator, full curve]
19 | O=C1/C(=C/c2ccncc2)CCC/C1=C\c1ccncc1 | inconclusive: 0.259 µM [falling, full curve]
20 | Cc1ccc(C(=O)NC(=S)Nc2ccccc2C)cc1 | inconclusive: 7.31 µM [activator, partial curve]
21 | Cc1cccc(NC(=O)c2cc3ccccc3c(=O)o2)n1 | inconclusive: 2.59 µM [activator, full curve]
22 | COc1ccc(C)cc1CN1C(=O)c2ccccc2C1=O | inconclusive: 29.1 µM [activator, single point]
23 | Cc1ccc(/C=N/Nc2cn[nH]c(=O)n2)o1 | inconclusive: 10.3 µM [activator, partial curve, poor fit]

Row | Compound | Potency
24 | O=C(Nc1ccc2oc(=O)ccc2c1)c1ccc(-c2ccccc2[N+](=O)[O-])o1 | inconclusive: 3.66 µM [falling, full curve]
25 | O=C1CN(C(=S)Nc2ccccc2Cl)CCN1 | inconclusive: 0.82 µM [falling, partial curve, poor fit]
26 | CC1Cc2ccccc2N1C(=O)c1ccc2snnc2c1 (stereo not given) | inactive
27 | Oc1[nH]c2ccccc2c1C=Nc1ccc2c(c1)OCCO2 | inconclusive: 1.16 µM [activator, partial curve]
28 | Cc1ccc(N=Nc2c(N)[nH]n3c(=O)cc(C)nc23)cc1 | inactive
29 | CCCn1c(C)cc(/C=C(\C#N)C(=O)OCC(=O)N(CC)c2c(N)n(Cc3ccccc3)c(=O)[nH]c2=O)c1C | inactive
30 | O=C(CSc1ccccn1)N1CCN(c2cccc(Cl)c2)CC1 | inconclusive: 11.6 µM [falling, partial curve, poor fit]
31 | CCc1cc(C(=O)c2ccc(OC)cc2)c(NC(=O)CCC(=O)O)s1 | inconclusive: 7.31 µM [falling, full curve]
32 | Cc1cc(-c2ccc(C)c(S(=O)(=O)N3CCC(C)CC3)c2)on1 | inconclusive: 29.1 µM [falling, single point]
33 | Cc1ccc(NC(=O)C2CC(=O)N(Cc3ccco3)C2)cc1 (stereo not given) | inconclusive: 0.731 µM [activator, full curve, poor fit]
34 | Cc1cccnc1NC(=O)Nc1ccc(F)cc1 | inconclusive: 16.4 µM [activator, partial curve]
35 | CCOC(=O)c1ccc(NC(=O)Cc2cccs2)cc1 | inconclusive: 20.6 µM [activator, single point]
36 | COc1cccc2cc(-c3csc(CCn4nc(C)cc4C)n3)c(=O)oc12 | inconclusive: 1.84 µM [activator, partial curve]
37 | Cc1nn(-c2ccccc2)c(N)c1N=Nc1ccccc1 | inconclusive: 29.1 µM [activator, single point]
38 | CC(C)CC(=O)Nc1nc2c(s1)CC(C(C)(C)C)CC2 (stereo not given) | inconclusive: 29.1 µM [activator, single point]
39 | CC1CCN(C(=O)CSc2nnc(-c3ccc(S(=O)(=O)N4CCOCC4)cc3)n2C)CC1 | inactive
40 | O=C(Nc1ccc(Oc2ccc(NC(=O)Nc3ccc([N+](=O)[O-])cc3)cc2)cc1)Nc1ccc([N+](=O)[O-])cc1 | active: 16.4 µM
41 | CCOc1ccc(CNC(=O)c2cccc(NC(=O)N3CCSc4ncccc43)c2)cc1 | inconclusive: 29.1 µM [falling, single point]
42 | Oc1ccc(Br)cc1-c1cc(-c2ccc(Cl)cc2)n[nH]1 | inconclusive: 29.1 µM [falling, partial curve, poor fit]
43 | Cc1ccc(SCCNC(=S)Nc2cc(C)ccc2C)cc1 | inconclusive: 20.6 µM [falling, single point]
44 | CCn1c(C(=O)N2CCC(C(=O)N3CCN(c4cc(C)ccc4C)CC3)CC2)cc2sccc21 | inconclusive: 25.9 µM [falling, partial curve]
45 | CC(=O)Nc1ccc(S(=O)(=O)NCC2CC3CCC2C3)cc1 (stereo not given) | inconclusive: 23.1 µM [falling, partial curve]

Structural class, the entries above with two or more sulfur atoms
Row | Compound | Potency
1 | CN1CCN(C(=O)CCCN2C(=O)/C(=C/c3ccccc3)SC2=S)CC1 | inconclusive: 29.1 µM [activator, single point]
10 | CS/C(N)=N/C(=S)Nc1cccc(Cl)c1 | inconclusive: 29.1 µM [activator, single point]
39 | CC1CCN(C(=O)CSc2nnc(-c3ccc(S(=O)(=O)N4CCOCC4)cc3)n2C)CC1 | inactive
43 | Cc1ccc(SCCNC(=S)Nc2cc(C)ccc2C)cc1 | inconclusive: 20.6 µM [falling, single point]
